Assay results taken from patent publication US20030180285A1, “Treatment of fungal infections with polyene or beta glucan synthase inhibitor anti-fungals combined with anti hsp90 antibodies” (priority 2000, published 2003).
Converted amounts (≈) assume the structure as drawn.

Key:
[1] = tested on: C. albicans (Fluconazole resistant); assay: Broth microdilution test (MIC, colony counts); format: cell-based; conditions: Candida albicans, no antibody
Description: (§1) Non-Aspergillus yeast strains used (Table 1) were plated onto Sabouraud's dextrose agar (Oxoid, Basingstoke, UK) and incubated at 37° C. for 24 hours. The strains were identified with the API 20C system (BioMerieux, Marcy L'Etoile, France). If needed, microscopical examinations of morphology on cornmeal agar (Oxoid) was used to confirm the identity.
(§2) For non-Aspergillus strains, suspensions were prepared from individual colonies (diameter≧1 mm) in 5 ml of sterile 0.85% saline to a density of […] as established by counting on a haemocytometer grid. For Aspergillus strains, see below.
(§3) RPMI broth was prepared from RPMI 1640 broth medium (Sigma R7880) supplemented with 0.3 g of glutamine per litre, buffered with 34.6 g of morpholine propanesulfonic acid (MOPS) per litre and adjusted to ph 7.0.
(§4) Twofold dilutions ([…] for amphotericin B and 400 to 0.4 mg/ml for fluconazole) were prepared in RPMI broth starting from the two stock solutions. A 100 μl suspension of the inoculum diluted 1 in 10 (equivalent to 1×10^3 cfu) was added to the microtiter plates. To this was added 50 μl of the antifungal and then 50 μl of the antibody. Antibody was either neat (0.4 mg/mil), or diluted to 1/10or 1/100. When antibody was absent, the 50 μl volume was made up by RPMI. […]
(§5) Colony counts were determined for the wells where there was a visual reduction in yeast growth. […]

[2] = tested on: Candida albicans (outbreak); assay: Broth microdilution test (MIC, colony counts); format: cell-based; conditions: C. albicans outbreak strain, no antibody, read-out: MIC to fluconazole
Description: as §1, §2, §3, §4, §5

OC(Cn1cncn1)(Cn1cncn1)c1ccc(F)cc1F [Fluconazole, fluconazole]
MIC [1]: 25 µg/mL (≈ 81.6 µM) | MIC [2]: 1.56 µg/mL (≈ 5.09 µM)
